# Measured values: PMC8254046
# No constants are given. Whether binding was seen depends on the method and setting. Binding seen in cells or lysates may run through a third protein. A result given as binding can be weak or reduced; the word gives no strength.
# Target: dominant-negative Flag-RAB11A (S25N) (UniProt P62491)
# Assay: co-IP; lysates of HEK293 cells transfected with Flag-RAB11A (wildtype or dominant-negative) and HA-Merlin, precipitated on anti-FLAG affinity gel; HA-Merlin detected
substance,measurement,value
hemagglutinin (HA)-tagged Merlin (from UniProt P35240 1-595),binding,binds
